Some of the results follow.
Legend:
Assay in all cases: log2 fold change, soluble protein after heating vs DMSO (PISA); higher = thermal stabilisation; K562 lysate, 10 uM; active = over 0.2 and 3.5 SD of the protein, either way, in both replicates (recomputed)
vemurafenib = compound: CCCS(=O)(=O)Nc1ccc(F)c(C(=O)c2c[nH]c3ncc(-c4ccc(Cl)cc4)cc23)c1F [vemurafenib]
How it was run: (§1)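 To prepare the extract, K562 pellets were dounce-homogenised in PBS pH 7.4 with 1 mM MgCl2, giving crude material at 1 mg/mL protein. This was treated with 10 μM compound for 30 min, then heated in aliquots for 3 min over 48°C-58°C before pooling and addition of NP-40 to 0.5% at 4°C. Centrifugation at 21,000xg for 90 min left soluble protein in the supernatant, which TMTpro 16plex LC-MS/MS quantified with equalised channel sums. Results are log-two fold changes in thermal stability compared with solvent controls, from duplicates.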

Chains of the proteins cited; added tags and fusions are not shown. Lines headed by an entry give the natural chain unless they say otherwise; changes in a name come on top.
UniProt P14859: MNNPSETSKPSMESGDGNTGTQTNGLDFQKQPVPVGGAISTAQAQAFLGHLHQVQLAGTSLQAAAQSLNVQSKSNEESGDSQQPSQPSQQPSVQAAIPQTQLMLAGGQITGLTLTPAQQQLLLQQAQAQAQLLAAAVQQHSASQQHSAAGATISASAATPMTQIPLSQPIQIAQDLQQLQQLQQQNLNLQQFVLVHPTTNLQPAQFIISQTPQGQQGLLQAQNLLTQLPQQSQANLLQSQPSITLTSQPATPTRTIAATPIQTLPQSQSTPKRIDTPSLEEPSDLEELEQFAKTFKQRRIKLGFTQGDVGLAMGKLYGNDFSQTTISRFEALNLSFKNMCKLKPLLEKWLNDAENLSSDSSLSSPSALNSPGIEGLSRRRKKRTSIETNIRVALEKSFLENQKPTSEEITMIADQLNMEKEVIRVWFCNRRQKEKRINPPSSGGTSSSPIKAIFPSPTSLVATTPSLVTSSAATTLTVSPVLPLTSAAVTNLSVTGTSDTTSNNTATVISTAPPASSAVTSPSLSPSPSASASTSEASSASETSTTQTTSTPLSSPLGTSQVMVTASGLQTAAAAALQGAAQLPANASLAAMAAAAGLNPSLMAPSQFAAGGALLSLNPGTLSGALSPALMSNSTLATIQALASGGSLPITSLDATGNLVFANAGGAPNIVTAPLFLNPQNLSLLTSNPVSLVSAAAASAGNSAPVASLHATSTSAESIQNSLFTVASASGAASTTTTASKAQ
UniProt O75817: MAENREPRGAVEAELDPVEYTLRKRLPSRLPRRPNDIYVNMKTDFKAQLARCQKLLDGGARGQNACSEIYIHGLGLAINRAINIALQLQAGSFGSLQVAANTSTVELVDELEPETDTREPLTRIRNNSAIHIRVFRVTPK
UniProt Q9NZ53: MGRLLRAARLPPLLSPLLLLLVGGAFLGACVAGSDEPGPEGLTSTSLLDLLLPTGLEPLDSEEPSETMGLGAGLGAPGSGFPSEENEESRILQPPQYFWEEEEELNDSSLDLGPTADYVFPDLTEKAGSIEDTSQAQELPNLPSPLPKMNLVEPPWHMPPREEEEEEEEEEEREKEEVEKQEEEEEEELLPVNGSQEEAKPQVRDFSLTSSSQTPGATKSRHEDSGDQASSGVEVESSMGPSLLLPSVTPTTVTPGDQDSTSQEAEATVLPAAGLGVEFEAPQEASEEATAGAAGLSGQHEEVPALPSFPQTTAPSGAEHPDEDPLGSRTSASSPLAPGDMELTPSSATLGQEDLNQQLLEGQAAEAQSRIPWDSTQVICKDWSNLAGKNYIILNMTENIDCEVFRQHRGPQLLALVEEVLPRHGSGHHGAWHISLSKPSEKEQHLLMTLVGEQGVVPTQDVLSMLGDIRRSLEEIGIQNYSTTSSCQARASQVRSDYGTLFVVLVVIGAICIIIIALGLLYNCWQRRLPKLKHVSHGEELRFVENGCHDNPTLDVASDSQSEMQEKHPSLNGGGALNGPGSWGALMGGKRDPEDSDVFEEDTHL
UniProt P23284: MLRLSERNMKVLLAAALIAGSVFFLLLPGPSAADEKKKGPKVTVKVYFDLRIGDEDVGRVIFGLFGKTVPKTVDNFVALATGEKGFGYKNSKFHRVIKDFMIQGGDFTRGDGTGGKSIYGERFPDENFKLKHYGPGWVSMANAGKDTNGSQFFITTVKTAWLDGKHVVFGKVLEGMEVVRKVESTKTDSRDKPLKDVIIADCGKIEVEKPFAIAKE
UniProt P0CG38, whole entry, looked up: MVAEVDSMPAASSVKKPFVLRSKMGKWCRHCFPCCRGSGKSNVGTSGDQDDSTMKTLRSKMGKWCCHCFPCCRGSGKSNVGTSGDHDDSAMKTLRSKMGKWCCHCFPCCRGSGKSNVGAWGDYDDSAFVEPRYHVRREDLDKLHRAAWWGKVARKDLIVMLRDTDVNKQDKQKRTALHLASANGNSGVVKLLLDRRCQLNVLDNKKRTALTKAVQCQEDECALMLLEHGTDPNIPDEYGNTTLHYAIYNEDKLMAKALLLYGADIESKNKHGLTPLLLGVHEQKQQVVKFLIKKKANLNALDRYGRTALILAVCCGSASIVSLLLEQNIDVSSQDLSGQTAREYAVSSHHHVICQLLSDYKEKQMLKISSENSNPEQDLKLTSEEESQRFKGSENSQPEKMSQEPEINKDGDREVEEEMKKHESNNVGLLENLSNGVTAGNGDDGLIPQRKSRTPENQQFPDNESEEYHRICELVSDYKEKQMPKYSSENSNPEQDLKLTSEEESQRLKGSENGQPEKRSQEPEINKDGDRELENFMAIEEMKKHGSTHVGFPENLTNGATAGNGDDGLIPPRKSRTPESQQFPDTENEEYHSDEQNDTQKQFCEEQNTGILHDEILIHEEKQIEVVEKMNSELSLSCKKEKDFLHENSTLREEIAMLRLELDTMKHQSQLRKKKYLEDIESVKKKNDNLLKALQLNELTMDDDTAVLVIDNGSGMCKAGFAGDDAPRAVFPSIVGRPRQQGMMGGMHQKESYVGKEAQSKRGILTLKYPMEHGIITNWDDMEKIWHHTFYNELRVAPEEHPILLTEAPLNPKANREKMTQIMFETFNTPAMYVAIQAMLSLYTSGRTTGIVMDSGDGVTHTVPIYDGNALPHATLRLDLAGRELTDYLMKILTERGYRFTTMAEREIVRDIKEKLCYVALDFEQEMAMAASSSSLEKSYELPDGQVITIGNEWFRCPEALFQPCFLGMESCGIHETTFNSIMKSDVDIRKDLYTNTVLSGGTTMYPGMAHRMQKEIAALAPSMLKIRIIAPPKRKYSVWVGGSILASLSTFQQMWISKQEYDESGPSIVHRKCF
UniProt P62937, whole entry, looked up: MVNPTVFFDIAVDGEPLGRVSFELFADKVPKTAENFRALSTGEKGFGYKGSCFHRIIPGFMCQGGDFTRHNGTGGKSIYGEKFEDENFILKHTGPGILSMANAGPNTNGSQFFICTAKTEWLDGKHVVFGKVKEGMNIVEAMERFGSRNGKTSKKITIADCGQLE
UniProt Q7Z4H8: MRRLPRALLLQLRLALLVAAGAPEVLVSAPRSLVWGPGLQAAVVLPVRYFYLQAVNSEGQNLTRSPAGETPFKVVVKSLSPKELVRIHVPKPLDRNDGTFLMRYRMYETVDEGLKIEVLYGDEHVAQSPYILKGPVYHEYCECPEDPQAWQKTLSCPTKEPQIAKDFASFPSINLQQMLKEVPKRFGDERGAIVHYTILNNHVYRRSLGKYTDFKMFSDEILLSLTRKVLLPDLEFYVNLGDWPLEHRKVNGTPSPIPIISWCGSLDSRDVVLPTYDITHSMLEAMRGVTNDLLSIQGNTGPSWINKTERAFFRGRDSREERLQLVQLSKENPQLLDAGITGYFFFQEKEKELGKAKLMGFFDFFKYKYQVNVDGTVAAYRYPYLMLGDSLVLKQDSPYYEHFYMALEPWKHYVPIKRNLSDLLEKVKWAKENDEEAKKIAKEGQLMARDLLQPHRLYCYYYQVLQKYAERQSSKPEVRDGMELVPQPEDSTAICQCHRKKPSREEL
UniProt Q9NVS9: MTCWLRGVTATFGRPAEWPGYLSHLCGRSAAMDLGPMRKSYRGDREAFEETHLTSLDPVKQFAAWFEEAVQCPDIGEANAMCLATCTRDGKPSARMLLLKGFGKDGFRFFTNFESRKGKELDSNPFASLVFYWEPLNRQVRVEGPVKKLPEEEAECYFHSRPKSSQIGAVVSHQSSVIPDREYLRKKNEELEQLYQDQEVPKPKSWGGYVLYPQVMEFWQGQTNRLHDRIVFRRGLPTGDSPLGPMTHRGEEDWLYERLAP
UniProt Q06203, whole entry, looked up: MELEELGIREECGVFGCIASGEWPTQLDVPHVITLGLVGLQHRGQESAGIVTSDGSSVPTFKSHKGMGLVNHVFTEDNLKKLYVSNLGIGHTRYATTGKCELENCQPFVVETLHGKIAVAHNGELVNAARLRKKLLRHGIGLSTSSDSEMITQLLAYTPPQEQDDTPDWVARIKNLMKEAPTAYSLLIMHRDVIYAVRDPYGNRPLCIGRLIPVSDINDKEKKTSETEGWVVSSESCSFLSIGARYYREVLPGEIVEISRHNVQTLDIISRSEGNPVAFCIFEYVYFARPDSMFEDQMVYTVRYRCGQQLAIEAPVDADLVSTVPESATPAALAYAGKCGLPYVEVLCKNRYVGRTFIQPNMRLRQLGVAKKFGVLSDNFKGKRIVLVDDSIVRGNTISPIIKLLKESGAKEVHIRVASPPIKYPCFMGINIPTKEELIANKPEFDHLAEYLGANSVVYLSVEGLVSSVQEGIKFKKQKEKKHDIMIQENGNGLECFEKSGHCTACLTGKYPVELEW
UniProt O95602, whole entry, looked up: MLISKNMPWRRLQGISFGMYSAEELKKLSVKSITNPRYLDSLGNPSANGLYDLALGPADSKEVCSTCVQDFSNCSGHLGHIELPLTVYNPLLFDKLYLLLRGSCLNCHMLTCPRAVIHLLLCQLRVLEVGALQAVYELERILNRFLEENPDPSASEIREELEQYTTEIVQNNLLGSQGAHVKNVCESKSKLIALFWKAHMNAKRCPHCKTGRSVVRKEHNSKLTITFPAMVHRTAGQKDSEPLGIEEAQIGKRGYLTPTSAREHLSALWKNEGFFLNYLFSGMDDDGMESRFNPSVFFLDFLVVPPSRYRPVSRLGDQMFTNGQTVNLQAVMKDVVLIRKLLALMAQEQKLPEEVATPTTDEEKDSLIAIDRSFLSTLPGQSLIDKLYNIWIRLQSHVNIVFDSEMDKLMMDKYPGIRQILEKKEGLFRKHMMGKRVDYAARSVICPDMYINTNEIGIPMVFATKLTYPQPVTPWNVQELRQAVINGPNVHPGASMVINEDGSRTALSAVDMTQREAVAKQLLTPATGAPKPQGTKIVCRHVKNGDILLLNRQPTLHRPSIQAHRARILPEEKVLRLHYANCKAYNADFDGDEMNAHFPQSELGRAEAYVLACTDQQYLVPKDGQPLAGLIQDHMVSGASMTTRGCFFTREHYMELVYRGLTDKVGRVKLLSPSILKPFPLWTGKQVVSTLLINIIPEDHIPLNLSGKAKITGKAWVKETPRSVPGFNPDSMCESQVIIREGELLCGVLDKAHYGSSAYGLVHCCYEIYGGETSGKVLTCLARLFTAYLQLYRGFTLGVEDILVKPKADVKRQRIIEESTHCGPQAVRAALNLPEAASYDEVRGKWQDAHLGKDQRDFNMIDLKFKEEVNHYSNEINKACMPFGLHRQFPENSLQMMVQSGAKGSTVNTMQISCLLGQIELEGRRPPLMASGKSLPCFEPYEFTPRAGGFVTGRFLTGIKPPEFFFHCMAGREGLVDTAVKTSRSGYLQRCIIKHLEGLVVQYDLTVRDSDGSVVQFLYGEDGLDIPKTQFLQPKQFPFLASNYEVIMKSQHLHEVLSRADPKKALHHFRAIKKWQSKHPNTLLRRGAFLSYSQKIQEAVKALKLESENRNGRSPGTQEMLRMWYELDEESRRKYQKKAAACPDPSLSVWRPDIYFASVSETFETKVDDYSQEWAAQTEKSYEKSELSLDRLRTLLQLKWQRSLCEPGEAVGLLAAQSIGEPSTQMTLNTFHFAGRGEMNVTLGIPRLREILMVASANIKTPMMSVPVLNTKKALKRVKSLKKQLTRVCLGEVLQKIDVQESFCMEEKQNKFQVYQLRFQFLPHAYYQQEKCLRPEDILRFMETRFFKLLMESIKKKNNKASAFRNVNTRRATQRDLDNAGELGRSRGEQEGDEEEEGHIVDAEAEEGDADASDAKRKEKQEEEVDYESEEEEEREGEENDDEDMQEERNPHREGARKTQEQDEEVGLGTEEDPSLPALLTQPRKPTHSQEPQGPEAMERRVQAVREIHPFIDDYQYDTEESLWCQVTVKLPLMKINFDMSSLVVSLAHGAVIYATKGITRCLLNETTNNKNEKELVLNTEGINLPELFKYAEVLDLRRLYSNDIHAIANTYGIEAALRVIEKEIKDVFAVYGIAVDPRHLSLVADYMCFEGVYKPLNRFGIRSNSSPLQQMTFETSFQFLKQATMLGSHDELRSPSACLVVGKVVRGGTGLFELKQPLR
UniProt O15318: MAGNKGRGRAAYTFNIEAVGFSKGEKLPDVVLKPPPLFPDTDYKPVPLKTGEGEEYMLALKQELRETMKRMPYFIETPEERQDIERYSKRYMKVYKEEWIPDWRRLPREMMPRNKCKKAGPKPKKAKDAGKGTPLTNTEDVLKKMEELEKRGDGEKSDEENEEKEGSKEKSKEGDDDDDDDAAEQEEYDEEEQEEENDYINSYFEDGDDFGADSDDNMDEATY
UniProt P0DPB6, whole entry, looked up: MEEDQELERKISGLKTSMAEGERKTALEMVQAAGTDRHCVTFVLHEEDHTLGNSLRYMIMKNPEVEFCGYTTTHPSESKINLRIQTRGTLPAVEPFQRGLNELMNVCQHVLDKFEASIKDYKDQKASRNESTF

[1] = compound: CCCS(=O)(=O)Nc1ccc(F)c(C(=O)c2c[nH]c3ncc(Cl)cc23)c1F
How it was run: as §1

barasertib = compound: CCN(CCCOc1ccc2c(Nc3cc(CC(=O)Nc4cccc(F)c4)[nH]n3)ncnc2c1)CCOP(=O)(O)O [barasertib]
How it was run: as §1

[2] = compound: CC[C@@H]1C(=O)N(C)c2cnc(Nc3ccc(C(=O)NC4CCN(C)CC4)cc3OC)nc2N1C1CCCC1
How it was run: as §1

volasertib = compound: CC[C@@H]1C(=O)N(C)c2cnc(Nc3ccc(C(=O)N[C@H]4CC[C@H](N5CCN(CC6CC6)CC5)CC4)cc3OC)nc2N1C(C)C [volasertib]
How it was run: as §1

[3] = compound: CCn1c(C(=O)N(C2CC2)C2CC2)cc2c3c(ncn3C)c(Nc3cc(C)n(C)n3)nc21
How it was run: as §1

[4] = compound: CCn1cc(-c2ccnc3[nH]c(-c4cccc(CN(C)C)c4)cc23)c(-c2ccc(NC(=O)N(C)C)cc2)n1
How it was run: as §1

[5] = compound: CN1CCC(CNc2ccc3ncc(-c4cccc(OC(F)(F)F)c4)n3n2)CC1
How it was run: as §1

saracatinib = compound: CN1CCN(CCOc2cc(OC3CCOCC3)c3c(Nc4c(Cl)ccc5c4OCO5)ncnc3c2)CC1 [saracatinib]
How it was run: as §1

sotrastaurin = compound: CN1CCN(c2nc(C3=C(c4c[nH]c5ccccc45)C(=O)NC3=O)c3ccccc3n2)CC1 [sotrastaurin]
How it was run: as §1

alvocidib = compound: CN1CC[C@H](c2c(O)cc(O)c3c(=O)cc(-c4ccccc4Cl)oc23)[C@H](O)C1 [alvocidib]
How it was run: as §1

Tubastatin A = compound: CN1CCc2c(c3ccccc3n2Cc2ccc(C(=O)NO)cc2)C1 [Tubastatin A]
How it was run: as §1

[6] = compound: CNC(=O)C1=CC=CC=C1NC2=NC(=NC=C2Cl)NC3=C(C=C(C=C3)N4CCOCC4)OC
How it was run: as §1

defactinib = compound: CNC(=O)c1ccc(Nc2ncc(C(F)(F)F)c(NCc3nccnc3N(C)S(C)(=O)=O)n2)cc1 [defactinib]
How it was run: as §1

[7] = compound: CNc1nc(-c2ccc3c(N)n[nH]c3c2)cc(N2C[C@@H](C(=O)NC3CCCCC3)CC[C@H]2C)n1
How it was run: as §1

encorafenib = compound: COC(=O)N[C@@H](C)CNc1nccc(-c2cn(C(C)C)nc2-c2cc(Cl)cc(NS(C)(=O)=O)c2F)n1 [encorafenib]
How it was run: as §1

[8] = compound: COC(=O)[C@H](CCSC)NC(=O)C1=C(C=C(C=C1)NC[C@H](CS)N)C2=CC=CC=C2
How it was run: as §1

alisertib = compound: COc1cc(Nc2ncc3c(n2)-c2ccc(Cl)cc2C(c2c(F)cccc2OC)=NC3)ccc1C(=O)O [alisertib]
How it was run: as §1

[9] = compound: COc1cc2nc(-c3cc(F)ccc3O)nc(N[C@@H]3CNC[C@H]3C(C)(C)O)c2cc1OC
How it was run: as §1

gefitinib = compound: COc1cc2ncnc(Nc3ccc(F)c(Cl)c3)c2cc1OCCCN1CCOCC1 [gefitinib]
How it was run: as §1

Measured: log2 fold change

POU2F1 isoform 6 (UniProt P14859)
inactive: vemurafenib 0.028 | [1] 0.006 | barasertib -0.019 | [2] 0.122 | volasertib -0.011 | [3] -0.009 | [4] 0.049 | [5] -0.086 | saracatinib -0.023 | sotrastaurin 0.05 | alvocidib 0.01 | Tubastatin A -0.042 | [6] -0.028 | defactinib -0.056 | [7] 0.047 | encorafenib 0.028 | [8] -0.048 | alisertib -0.013 | [9] -0.024 | gefitinib -0.022

POP7 (UniProt O75817)
inactive: vemurafenib -0.049 | [1] 0.071 | barasertib 0.128 | [2] 0.04 | volasertib 0.005 | [3] -0.014 | [4] -0.073 | [5] -0.032 | saracatinib 0.064 | sotrastaurin -0.024 | alvocidib -0.029 | Tubastatin A 0.173 | [6] 0.007 | defactinib 0.024 | [7] 0 | encorafenib -0.037 | [8] -0.014 | alisertib 0.142 | [9] 0.018 | gefitinib -0.287

PODXL2 (UniProt Q9NZ53)
inactive: vemurafenib 0.237 | [1] -0.131 | barasertib 0.021 | [2] -0.02 | volasertib 0 | [3] -0.124 | [4] 0.012 | [5] -0.013 | saracatinib 0.255 | sotrastaurin 0.07 | alvocidib -0.046 | Tubastatin A 0.021 | [6] 0.06 | defactinib 0.166 | [7] 0.019 | encorafenib 0.022 | [8] -0.018 | alisertib 0.108 | [9] -0.154 | gefitinib -0.112

PPIB (UniProt P23284)
inactive: vemurafenib -0.014 | [1] -0.001 | barasertib 0.002 | [2] 0.017 | volasertib 0.028 | [3] 0.003 | [4] 0.008 | [5] -0.015 | saracatinib 0.005 | sotrastaurin -0.013 | alvocidib 0.018 | Tubastatin A 0.021 | [6] -0.008 | defactinib -0.018 | [7] 0.021 | encorafenib 0 | [8] -0.003 | alisertib 0 | [9] 0.029 | gefitinib -0.008

POTEI (UniProt P0CG38)
inactive: vemurafenib -0.004 | [1] 0.033 | barasertib 0.003 | [2] -0.003 | volasertib -0.076 | [3] -0.023 | [4] -0.03 | [5] -0.02 | saracatinib 0.021 | sotrastaurin 0.036 | alvocidib 0.023 | Tubastatin A -0.012 | [6] 0.029 | defactinib 0.004 | [7] 0.049 | encorafenib -0.056 | [8] 0.033 | alisertib -0.004 | [9] -0.004 | gefitinib -0.016

PPIA (UniProt P62937)
inactive: vemurafenib -0.03 | [1] 0.002 | barasertib 0.021 | [2] -0.022 | volasertib -0.001 | [3] 0.01 | [4] 0.028 | [5] -0.011 | saracatinib -0.001 | sotrastaurin 0.001 | alvocidib 0.011 | Tubastatin A 0.013 | [6] -0.021 | defactinib -0.012 | [7] -0.008 | encorafenib -0.017 | [8] -0.053 | alisertib 0.012 | [9] -0.022 | gefitinib -0.005

POLR2A, A0A590UJN4
inactive: vemurafenib 0.006 | [1] 0.011 | barasertib 0.026 | [2] -0.015 | volasertib -0.058 | [3] 0.012 | [4] -0.048 | [5] -0.01 | saracatinib 0 | sotrastaurin -0.02 | alvocidib -0.012 | Tubastatin A 0.007 | [6] 0.017 | defactinib -0.019 | [7] -0.042 | encorafenib 0.002 | [8] 0.073 | alisertib -0.013 | [9] 0.016 | gefitinib -0.003

POGLUT3 (UniProt Q7Z4H8)
inactive: vemurafenib 0.026 | [1] -0.001 | barasertib 0.006 | [2] 0.013 | volasertib -0.026 | [3] 0.012 | [4] -0.052 | [5] 0.022 | saracatinib 0.016 | sotrastaurin -0.001 | alvocidib -0.006 | Tubastatin A 0.023 | [6] 0.023 | defactinib 0.008 | [7] -0.074 | encorafenib 0.015 | [8] 0.034 | alisertib 0.01 | [9] 0.011 | gefitinib 0.013

POP1 (UniProt Q99575)
inactive: vemurafenib 0.006 | [1] 0.024 | barasertib -0.021 | [2] 0.031 | volasertib 0.005 | [3] -0.029 | [4] 0.06 | [5] 0.019 | saracatinib -0.001 | sotrastaurin 0.001 | alvocidib -0.006 | Tubastatin A 0.024 | [6] -0.01 | defactinib 0.01 | [7] 0.058 | encorafenib 0 | [8] -0.014 | alisertib 0.008 | [9] 0.003 | gefitinib 0.006

POLR2E (UniProt P19388)
inactive: vemurafenib 0.003 | [1] 0.036 | barasertib -0.021 | [2] -0.014 | volasertib -0.005 | [3] 0.039 | [4] -0.04 | [5] -0.026 | saracatinib 0.004 | sotrastaurin -0.012 | alvocidib -0.003 | Tubastatin A 0.004 | [6] 0.002 | defactinib 0.019 | [7] 0.033 | encorafenib 0.007 | [8] 0.11 | alisertib 0.011 | [9] 0.016 | gefitinib -0.03

PNPO (UniProt Q9NVS9)
inactive: vemurafenib -0.269 | [1] 0.021 | barasertib -0.022 | [2] -0.216 | volasertib -0.066 | [3] 0.008 | [4] 0.103 | [5] -0.047 | saracatinib -0.007 | sotrastaurin 0.019 | alvocidib 0.086 | Tubastatin A -0.044 | [6] 0.057 | defactinib 0.065 | [7] -0.078 | encorafenib 0.065 | [8] -0.189 | alisertib -0.06 | [9] 0.009 | gefitinib -0.027

PPAT (UniProt Q06203)
inactive: vemurafenib -0.014 | [1] 0.032 | barasertib -0.009 | [2] -0.006 | volasertib 0.002 | [3] 0.007 | [4] 0.193 | [5] -0.04 | saracatinib -0.038 | sotrastaurin -0.018 | alvocidib 0.006 | Tubastatin A 0.017 | [6] 0.086 | defactinib -0.032 | [7] 0.029 | encorafenib -0.003 | [8] -0.023 | alisertib -0.024 | [9] 0 | gefitinib -0.018

POLR1A (UniProt O95602)
inactive: vemurafenib 0.04 | [1] 0.006 | barasertib 0.074 | [2] 0.055 | volasertib -0.01 | [3] -0.005 | [4] 0.012 | [5] -0.056 | saracatinib -0.011 | sotrastaurin 0.052 | alvocidib -0.009 | Tubastatin A -0.026 | [6] 0.013 | defactinib -0.025 | [7] 0.147 | encorafenib -0.012 | [8] 0.157 | alisertib -0.021 | [9] 0.039 | gefitinib -0.027

POLR2G (UniProt P62487)
inactive: vemurafenib -0.014 | [1] 0.02 | barasertib -0.003 | [2] 0.03 | volasertib 0.023 | [3] 0 | [4] 0.025 | [5] 0.05 | saracatinib 0.016 | sotrastaurin 0.011 | alvocidib -0.034 | Tubastatin A 0.012 | [6] 0.038 | defactinib 0.027 | [7] 0.019 | encorafenib 0.007 | [8] -0.032 | alisertib 0.016 | [9] 0.017 | gefitinib -0.01

Three consecutive entries from above, quoted:
POP1 (UniProt Q99575)
inactive: vemurafenib 0.006 | [1] 0.024 | barasertib -0.021 | [2] 0.031 | volasertib 0.005 | [3] -0.029 | [4] 0.06 | [5] 0.019 | saracatinib -0.001 | sotrastaurin 0.001 | alvocidib -0.006 | Tubastatin A 0.024 | [6] -0.01 | defactinib 0.01 | [7] 0.058 | encorafenib 0 | [8] -0.014 | alisertib 0.008 | [9] 0.003 | gefitinib 0.006

POLR2E (UniProt P19388)
inactive: vemurafenib 0.003 | [1] 0.036 | barasertib -0.021 | [2] -0.014 | volasertib -0.005 | [3] 0.039 | [4] -0.04 | [5] -0.026 | saracatinib 0.004 | sotrastaurin -0.012 | alvocidib -0.003 | Tubastatin A 0.004 | [6] 0.002 | defactinib 0.019 | [7] 0.033 | encorafenib 0.007 | [8] 0.11 | alisertib 0.011 | [9] 0.016 | gefitinib -0.03

PNPO (UniProt Q9NVS9)
inactive: vemurafenib -0.269 | [1] 0.021 | barasertib -0.022 | [2] -0.216 | volasertib -0.066 | [3] 0.008 | [4] 0.103 | [5] -0.047 | saracatinib -0.007 | sotrastaurin 0.019 | alvocidib 0.086 | Tubastatin A -0.044 | [6] 0.057 | defactinib 0.065 | [7] -0.078 | encorafenib 0.065 | [8] -0.189 | alisertib -0.06 | [9] 0.009 | gefitinib -0.027

Following part

POLR3G (UniProt O15318)
inactive: vemurafenib 0.015 | [1] 0.003 | barasertib 0.017 | [2] 0.091 | volasertib -0.007 | [3] -0.048 | [4] -0.019 | [5] -0.028 | saracatinib -0.018 | sotrastaurin 0.059 | alvocidib -0.028 | Tubastatin A 0.036 | [6] -0.013 | defactinib 0.055 | [7] -0.006 | encorafenib 0.031 | [8] -0.089 | alisertib 0.02 | [9] 0.018 | gefitinib -0.04

POLR1D (UniProt P0DPB6)
inactive: vemurafenib 0.01 | [1] -0.012 | barasertib 0.124 | [2] 0.028 | volasertib 0.034 | [3] -0.048 | [4] -0.092 | [5] 0.041 | saracatinib 0.009 | sotrastaurin 0.086 | alvocidib -0.016 | Tubastatin A -0.071 | [6] -0.018 | defactinib 0.013 | [7] 0.042 | encorafenib 0.01 | [8] 0.075 | alisertib -0.034 | [9] -0.026 | gefitinib -0.037

Source: the supplement of paper PMC10849652
